Our source for the binding values is publication PMC11850723.

For test [1], the target named is T1, Tim17 (S. cerevisiae (endogenous in YPH499 mitochondria)) (UniProt P39515).
T1 sequence: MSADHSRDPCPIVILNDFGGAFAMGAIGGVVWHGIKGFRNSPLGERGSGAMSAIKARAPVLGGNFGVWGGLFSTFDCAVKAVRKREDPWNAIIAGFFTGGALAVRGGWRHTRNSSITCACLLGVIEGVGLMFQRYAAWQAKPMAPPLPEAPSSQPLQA
Description: co-IP; isolated mitochondria solubilized in 1% digitonin (20 mM Tris-HCl, 80 mM KCl, 10% glycerol, 5 mM EDTA, pH 8.0), 4 °C; affinity-purified antibodies prebound to Protein A-Sepharose; western blotting; wild type, tim23G112L, Tim23-depleted and tim17C10S/C77S mitochondria. (Immunoblotting shows a protein as a band on a membrane.)

The target in test [2] is T2, Dbi1 (disulfide bond formation in inner membrane proteins), protein encoded by ORF YDL157c (S. cerevisiae (endogenous in YPH499 mitochondria)) (UniProt Q12082).
T2 sequence: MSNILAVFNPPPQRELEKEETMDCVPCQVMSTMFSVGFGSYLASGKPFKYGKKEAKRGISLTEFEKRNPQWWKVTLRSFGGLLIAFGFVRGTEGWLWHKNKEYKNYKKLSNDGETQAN
Described as above.

Results are given in words; binding and its absence hold for the method and conditions named. Binding seen in cells or lysates may run through a third protein. Some binding calls cover weakened binding; strength is not graded here.

B1: Dbi1 (disulfide bond formation in inner membrane proteins), protein encoded by ORF YDL157c (protein, UniProt Q12082 1-118)
chain: T2 sequence
B1: in test [1], the binding entry is on record as “binds”.

B2: Tim17 (protein, UniProt P39515 1-158)
chain: T1 sequence
For the molecule B2, in test [2], the binding result is recorded as “binds”.
